Experimental data taken from paper PMC10067601, “Identification of a peptide ligand for human ALDH3A1 through peptide phage display: Prediction and characterization of protein interaction sites and inhibition of ALDH3A1 enzymatic activity” (Frontiers in Molecular Biosciences, 2023).
Results are given in words; binding and its absence hold for the method and conditions named. Some results given as binding are weak or reduced against the parent protein; the word gives no strength. Sequences can lack the tags named with a protein.

T1: human recombinant ALDH3A1 (aldehyde dehydrogenase 3A1), fused with 6 histidines in its carboxyl end (human) (UniProt P30838)
T1 sequence: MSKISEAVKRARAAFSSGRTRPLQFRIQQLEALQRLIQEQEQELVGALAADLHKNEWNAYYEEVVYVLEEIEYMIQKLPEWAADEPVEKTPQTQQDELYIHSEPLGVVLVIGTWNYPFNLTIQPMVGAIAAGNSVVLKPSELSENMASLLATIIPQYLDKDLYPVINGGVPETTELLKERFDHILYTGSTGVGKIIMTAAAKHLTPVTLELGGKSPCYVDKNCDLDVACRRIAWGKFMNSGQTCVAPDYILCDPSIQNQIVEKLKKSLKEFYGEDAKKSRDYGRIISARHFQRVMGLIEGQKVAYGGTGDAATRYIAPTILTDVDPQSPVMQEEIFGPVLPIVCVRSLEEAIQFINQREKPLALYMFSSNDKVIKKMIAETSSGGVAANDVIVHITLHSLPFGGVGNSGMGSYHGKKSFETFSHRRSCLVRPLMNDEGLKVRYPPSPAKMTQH


Target: T1, human recombinant ALDH3A1 (aldehyde dehydrogenase 3A1), fused with 6 histidines in its carboxyl end (human)
Assay: phage display panning; ALDH3A1 (75 μg) coated on a Petri dish in 0.1 M NaHCO3 pH 8.6, blocked with BSA; 4 × 10^10 phages of the 12-mer library in TBST, 60 min at RT; elution with 0.2 M glycine-HCl pH 2.2; three rounds of panning; 33 plaques sequenced; only the target purified

Binder	binding
WPTSLTSAQFLF	binds
ALHPLTNRHYAT	binds
WPTYVSPFRSPP [peptide … (P1) displayed on M13 phage]	binds
TPFPFAPLGRPP	binds
